Laboratory results published in the supplement of paper PMC11006884.
The entries are a selection whose mix differs from that of the whole data set. This is a noisy data set.

Sequences of proteins named here, by UniProt entry; tags and fusion partners are left off. A change or cut given only in a name is not applied to a line headed by its entry.
UniProt P78527, whole entry, looked up: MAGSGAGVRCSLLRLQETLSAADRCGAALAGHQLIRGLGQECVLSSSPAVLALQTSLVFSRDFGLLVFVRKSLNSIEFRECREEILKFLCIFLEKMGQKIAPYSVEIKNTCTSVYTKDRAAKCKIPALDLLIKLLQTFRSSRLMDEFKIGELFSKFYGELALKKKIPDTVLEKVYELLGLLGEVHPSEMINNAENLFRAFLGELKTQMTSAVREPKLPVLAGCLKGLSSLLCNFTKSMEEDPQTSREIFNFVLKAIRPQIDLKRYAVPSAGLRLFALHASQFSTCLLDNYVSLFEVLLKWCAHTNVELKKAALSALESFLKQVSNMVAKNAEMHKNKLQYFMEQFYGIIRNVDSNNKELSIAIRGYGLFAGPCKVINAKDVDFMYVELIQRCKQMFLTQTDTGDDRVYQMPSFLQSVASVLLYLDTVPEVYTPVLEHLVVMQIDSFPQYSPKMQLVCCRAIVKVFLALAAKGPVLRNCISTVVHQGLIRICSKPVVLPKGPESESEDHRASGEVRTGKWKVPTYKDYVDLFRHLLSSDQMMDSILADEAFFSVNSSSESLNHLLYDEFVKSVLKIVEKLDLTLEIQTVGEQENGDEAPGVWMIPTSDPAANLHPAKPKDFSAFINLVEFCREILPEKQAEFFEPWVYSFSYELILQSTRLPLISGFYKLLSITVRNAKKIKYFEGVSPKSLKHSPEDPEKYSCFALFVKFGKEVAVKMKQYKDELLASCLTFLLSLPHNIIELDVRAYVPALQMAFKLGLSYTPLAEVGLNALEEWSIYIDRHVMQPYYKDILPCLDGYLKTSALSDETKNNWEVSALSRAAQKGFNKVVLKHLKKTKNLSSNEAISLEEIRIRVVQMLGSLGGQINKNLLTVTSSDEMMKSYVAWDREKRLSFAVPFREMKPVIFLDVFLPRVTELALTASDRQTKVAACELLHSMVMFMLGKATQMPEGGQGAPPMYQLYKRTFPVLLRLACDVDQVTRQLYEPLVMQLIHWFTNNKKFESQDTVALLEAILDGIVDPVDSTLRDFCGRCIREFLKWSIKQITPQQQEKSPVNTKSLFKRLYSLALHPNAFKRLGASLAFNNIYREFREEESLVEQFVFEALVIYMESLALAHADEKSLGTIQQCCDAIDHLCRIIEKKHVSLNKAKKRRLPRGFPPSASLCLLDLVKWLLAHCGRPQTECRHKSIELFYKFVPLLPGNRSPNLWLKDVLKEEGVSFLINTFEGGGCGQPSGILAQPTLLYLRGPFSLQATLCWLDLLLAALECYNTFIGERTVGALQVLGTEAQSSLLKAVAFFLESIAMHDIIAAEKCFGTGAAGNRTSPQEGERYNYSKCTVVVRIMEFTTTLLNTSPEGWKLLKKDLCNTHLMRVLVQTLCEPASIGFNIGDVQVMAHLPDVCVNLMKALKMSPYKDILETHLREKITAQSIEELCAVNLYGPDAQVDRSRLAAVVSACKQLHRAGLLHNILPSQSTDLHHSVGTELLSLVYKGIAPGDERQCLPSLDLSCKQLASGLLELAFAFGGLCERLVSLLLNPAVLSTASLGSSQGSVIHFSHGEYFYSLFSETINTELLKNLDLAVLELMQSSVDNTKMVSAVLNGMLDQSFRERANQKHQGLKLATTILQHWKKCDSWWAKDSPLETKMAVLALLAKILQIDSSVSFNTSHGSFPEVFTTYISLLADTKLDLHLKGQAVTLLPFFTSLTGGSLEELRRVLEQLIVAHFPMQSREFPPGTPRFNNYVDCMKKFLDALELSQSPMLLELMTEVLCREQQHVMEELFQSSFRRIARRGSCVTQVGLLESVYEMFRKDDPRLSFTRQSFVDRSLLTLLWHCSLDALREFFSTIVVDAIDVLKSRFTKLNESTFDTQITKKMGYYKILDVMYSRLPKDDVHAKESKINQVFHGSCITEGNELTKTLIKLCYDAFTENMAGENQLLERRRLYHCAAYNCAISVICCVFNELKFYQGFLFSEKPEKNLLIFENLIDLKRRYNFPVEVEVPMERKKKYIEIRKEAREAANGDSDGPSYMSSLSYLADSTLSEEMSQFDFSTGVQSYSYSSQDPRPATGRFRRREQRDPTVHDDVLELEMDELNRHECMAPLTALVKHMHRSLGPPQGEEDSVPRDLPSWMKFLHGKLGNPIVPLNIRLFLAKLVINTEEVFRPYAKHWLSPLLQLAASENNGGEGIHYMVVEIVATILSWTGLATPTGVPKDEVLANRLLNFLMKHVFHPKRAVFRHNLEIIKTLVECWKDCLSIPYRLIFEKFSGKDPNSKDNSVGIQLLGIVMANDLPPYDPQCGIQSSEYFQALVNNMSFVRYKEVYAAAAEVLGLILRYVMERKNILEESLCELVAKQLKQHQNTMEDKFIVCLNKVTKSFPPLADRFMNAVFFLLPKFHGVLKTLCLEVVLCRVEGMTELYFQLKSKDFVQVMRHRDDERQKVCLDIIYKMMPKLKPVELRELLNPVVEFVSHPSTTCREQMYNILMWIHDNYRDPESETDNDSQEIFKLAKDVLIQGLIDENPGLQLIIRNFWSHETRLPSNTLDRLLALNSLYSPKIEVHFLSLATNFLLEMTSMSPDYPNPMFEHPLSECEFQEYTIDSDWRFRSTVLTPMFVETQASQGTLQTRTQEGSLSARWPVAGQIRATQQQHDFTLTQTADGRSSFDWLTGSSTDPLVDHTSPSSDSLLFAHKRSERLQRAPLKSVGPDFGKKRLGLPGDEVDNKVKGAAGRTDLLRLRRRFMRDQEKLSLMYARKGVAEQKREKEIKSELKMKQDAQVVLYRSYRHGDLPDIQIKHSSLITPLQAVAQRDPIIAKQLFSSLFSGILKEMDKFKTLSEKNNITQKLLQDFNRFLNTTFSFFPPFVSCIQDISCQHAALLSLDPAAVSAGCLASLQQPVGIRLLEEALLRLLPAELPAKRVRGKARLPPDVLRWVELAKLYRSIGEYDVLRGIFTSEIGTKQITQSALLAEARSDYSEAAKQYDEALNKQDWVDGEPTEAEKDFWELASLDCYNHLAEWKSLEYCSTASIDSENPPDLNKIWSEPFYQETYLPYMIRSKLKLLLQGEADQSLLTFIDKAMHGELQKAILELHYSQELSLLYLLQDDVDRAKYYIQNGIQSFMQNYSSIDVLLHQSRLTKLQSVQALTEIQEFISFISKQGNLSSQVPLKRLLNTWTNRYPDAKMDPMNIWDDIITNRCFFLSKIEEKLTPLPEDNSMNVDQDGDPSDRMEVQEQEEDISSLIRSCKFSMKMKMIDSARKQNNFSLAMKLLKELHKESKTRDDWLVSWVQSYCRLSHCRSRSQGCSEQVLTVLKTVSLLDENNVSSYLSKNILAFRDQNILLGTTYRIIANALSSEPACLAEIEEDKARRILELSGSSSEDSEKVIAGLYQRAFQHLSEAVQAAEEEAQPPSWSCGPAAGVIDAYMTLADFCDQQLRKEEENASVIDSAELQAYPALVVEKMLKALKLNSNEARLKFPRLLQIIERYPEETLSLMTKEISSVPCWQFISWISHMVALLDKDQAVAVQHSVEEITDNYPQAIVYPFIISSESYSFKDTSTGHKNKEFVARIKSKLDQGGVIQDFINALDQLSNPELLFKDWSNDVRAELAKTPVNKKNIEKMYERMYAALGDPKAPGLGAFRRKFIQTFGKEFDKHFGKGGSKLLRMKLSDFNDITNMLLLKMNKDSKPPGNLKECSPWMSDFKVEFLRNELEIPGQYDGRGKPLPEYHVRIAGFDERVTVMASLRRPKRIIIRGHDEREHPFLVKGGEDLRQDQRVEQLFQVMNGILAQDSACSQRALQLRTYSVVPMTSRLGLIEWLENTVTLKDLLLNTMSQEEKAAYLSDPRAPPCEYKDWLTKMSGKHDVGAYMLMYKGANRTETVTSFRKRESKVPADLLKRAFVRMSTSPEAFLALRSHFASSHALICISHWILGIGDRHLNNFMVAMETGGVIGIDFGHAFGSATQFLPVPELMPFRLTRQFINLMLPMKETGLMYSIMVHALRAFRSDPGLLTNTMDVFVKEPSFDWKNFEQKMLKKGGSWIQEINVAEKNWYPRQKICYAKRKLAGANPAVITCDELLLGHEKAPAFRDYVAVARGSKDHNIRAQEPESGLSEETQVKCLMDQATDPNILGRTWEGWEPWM
UniProt Q00610: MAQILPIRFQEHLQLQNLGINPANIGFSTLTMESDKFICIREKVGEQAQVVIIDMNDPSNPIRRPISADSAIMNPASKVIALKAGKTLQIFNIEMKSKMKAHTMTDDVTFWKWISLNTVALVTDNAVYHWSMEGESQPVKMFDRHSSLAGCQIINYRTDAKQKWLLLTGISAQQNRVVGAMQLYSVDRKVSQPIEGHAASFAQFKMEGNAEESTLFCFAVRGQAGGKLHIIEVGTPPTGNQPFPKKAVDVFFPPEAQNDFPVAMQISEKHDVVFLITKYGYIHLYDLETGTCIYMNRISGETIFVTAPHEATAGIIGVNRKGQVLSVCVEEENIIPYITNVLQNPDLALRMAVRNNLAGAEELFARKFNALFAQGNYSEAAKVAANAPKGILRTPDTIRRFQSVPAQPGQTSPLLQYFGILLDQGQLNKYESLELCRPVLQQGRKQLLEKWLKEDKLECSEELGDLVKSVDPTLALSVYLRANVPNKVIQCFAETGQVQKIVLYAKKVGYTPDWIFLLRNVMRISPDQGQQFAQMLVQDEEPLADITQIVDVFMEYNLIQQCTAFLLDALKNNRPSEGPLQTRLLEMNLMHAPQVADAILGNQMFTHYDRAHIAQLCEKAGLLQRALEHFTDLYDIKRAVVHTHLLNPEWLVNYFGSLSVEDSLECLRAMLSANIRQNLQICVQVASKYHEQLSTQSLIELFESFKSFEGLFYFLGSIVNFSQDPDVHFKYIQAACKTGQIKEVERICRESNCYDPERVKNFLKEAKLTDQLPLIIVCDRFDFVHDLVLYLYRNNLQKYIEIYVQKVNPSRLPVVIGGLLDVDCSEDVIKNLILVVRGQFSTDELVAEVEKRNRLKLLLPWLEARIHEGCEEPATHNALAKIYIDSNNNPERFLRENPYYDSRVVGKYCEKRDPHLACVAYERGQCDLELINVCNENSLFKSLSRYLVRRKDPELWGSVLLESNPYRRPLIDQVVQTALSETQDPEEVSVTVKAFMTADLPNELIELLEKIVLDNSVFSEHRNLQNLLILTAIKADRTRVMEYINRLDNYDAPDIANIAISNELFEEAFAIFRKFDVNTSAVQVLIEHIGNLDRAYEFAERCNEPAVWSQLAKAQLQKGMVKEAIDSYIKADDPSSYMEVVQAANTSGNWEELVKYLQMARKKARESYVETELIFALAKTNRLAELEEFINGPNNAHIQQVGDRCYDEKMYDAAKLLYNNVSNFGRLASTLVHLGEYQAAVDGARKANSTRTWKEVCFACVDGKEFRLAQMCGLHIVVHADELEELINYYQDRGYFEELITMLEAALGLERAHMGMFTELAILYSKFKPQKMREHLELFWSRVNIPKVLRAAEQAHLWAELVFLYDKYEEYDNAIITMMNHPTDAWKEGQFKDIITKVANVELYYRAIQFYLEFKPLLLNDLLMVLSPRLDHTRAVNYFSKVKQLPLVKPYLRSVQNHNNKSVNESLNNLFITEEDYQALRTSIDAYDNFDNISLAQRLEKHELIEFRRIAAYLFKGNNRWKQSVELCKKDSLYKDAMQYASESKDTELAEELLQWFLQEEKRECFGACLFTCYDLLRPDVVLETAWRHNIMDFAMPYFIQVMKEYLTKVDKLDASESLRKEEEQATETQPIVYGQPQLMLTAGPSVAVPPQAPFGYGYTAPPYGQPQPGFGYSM
UniProt P67775, whole entry, looked up: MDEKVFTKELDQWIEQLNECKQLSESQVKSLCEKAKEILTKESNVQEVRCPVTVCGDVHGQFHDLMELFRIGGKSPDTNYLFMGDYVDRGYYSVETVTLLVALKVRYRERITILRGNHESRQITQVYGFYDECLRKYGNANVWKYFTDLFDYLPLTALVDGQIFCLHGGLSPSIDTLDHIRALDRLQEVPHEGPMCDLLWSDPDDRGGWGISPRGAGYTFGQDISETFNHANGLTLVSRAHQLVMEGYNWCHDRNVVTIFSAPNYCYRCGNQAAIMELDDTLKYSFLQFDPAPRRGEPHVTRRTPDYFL
UniProt Q00587: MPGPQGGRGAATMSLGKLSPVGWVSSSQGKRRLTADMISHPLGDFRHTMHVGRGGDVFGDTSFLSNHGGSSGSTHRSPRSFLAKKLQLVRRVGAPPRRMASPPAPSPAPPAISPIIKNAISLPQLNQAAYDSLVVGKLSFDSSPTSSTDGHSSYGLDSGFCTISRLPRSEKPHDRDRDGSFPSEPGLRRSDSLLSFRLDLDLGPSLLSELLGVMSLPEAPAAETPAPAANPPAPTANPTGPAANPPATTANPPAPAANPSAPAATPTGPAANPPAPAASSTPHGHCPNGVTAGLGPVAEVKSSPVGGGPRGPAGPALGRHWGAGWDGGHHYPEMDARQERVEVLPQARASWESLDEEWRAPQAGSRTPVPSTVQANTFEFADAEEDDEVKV

compound: COC(=O)/C=C/c1ccccc1 [methyl cinnamate]; test: log2 ratio of iodoacetamide-alkyne labeling of the cysteine site, DMSO over compound (competition); higher = stronger covalent engagement of the cysteine by the compound, active = 1 or more; details: 500 µM; treatment time 1 h; system: HEK293T cell lysate
Procedure, shortened: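 For each cysteine, the log2 competition ratio is mean control-channel reporter intensity over mean compound-channel reporter intensity. HEK293T lysate (2 mg/mL) was exposed to vehicle or electrophile (500 µM, 1 h, ambient temperature), labelled with iodoacetamide alkyne (1 h), clicked to sCIP-TMT reagents, digested overnight with trypsin at 37 °C, streptavidin-enriched and analysed by Orbitrap Eclipse LC-MS/MS with FAIMS and FragPipe. Cysteines quantified in only one of three replicates, each with duplicate channels, were excluded.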

log2 ratio of iodoacetamide-alkyne labeling, inactive:
UniProt P78527_C3683 0.139, CLTC C328 (UniProt Q00610) -0.298, UniProt P78527_C478 0.415, PFKP C641 (UniProt Q01813) -0.0401, MRPS5 C377 (UniProt P82675) 0.078, GTF2I C903 (UniProt P78347) -0.00452, UniProt P78527_C3403 -0.208, UniProt P62854_C74 0.22, RPS27A C126 (UniProt P62979) 0.103, UniProt P62273_C39 0.139, CNBP C140 (UniProt P62633) 0.0247, CLTC C870 (UniProt Q00610) 0.294, HNRNPU C391 (UniProt Q00839) -0.255, EWSR1 C540 (UniProt Q01844) 0.14, SKP1 C160 (UniProt P63208) 0.27, EWSR1 C524 (UniProt Q01844) 0.0458, UniProt P62995_C119 0.0195, CLTC C436 (UniProt Q00610) 0.028, UniProt P63244_C240 0.0875, UniProt P62263_C85 0.136, CNBP C54 (UniProt P62633) 0.0102, SKP1 C120 (UniProt P63208) 0.17, UniProt Q00341_C636 0.312, HNRNPU C562 (UniProt Q00839) 0.232, OGDH C802 (UniProt Q02218) 0.189, EEF1A1 C31 (UniProt P68104) 0.259, PPP2CA C196 (UniProt P67775) 0.198, UniProt P68363_C376 0.0636, PFKP C123 (UniProt Q01813) -0.12, P86790_C358 (UniProt P86791+P86790) 0.105, UniProt P62280_C131 0.162, CDC42EP1 C161 (UniProt Q00587) 0.044, FABP5 C127 (UniProt Q01469) 0.00798, UniProt P78527_C1499 0.308, UniProt P62987_C115 0.207, OGDH C566 (UniProt Q02218) -0.206, UniProt P62995_C118 -0.0826
